From the supplement of paper PMC7666118
Some of the results follow.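 Rule for the calls: active = dose-dependent thermal stabilisation significant by F-test of dose-response against flat model at 10% FDR; inactive = not significant.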

What follows are compounds tested against T1, STX2 (UniProt P32856) (assay: dose-dependent thermal stabilisation call (2D-TPP, DLPTP, 10% FDR) (binary (1 = stabilised)); higher = stabilised by the compound). Conditions: system: Jurkat gel-filtered lysate; concentration range 1-500 µM.
T1 sequence (whole entry): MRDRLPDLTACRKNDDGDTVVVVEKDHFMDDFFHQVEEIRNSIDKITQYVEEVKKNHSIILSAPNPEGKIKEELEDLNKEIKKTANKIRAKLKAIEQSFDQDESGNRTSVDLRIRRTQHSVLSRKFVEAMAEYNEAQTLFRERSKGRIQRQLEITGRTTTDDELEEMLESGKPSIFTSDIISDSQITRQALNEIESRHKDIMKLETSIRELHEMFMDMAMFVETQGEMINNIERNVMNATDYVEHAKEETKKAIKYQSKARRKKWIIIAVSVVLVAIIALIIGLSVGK
Method: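 2D thermal proteome profiling in gel-filtered Jurkat E6.1 lysate (2 mg/ml) treated with NaGTP (0, 1, 10, 100, 500 uM) for 10 min at room temperature, then heated 3 min at one of 12 temperatures (42-63.9 C). Soluble protein was quantified by TMT10 MS. The value is the DLPTP call of the paper: dose-dependent thermal stabilisation over all temperatures at 10% FDR (F-test of a dose-response against a flat model); one experiment, one call per tested protein.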

| Structure (SMILES) | dose-dependent thermal stabilisation call |
| --- | --- |
| Nc1nc2c(ncn2[C@@H]2O[C@H](COP(=O)(O)OP(=O)(O)OP(=O)(O)O)[C@@H](O)[C@H]2O)c(=O)[nH]1 | inactive: 0 |
